Laboratory results: publication PMC12297596
No constants are given. Whether binding was seen depends on the method and setting. Binding seen in cells or lysates may run through a third protein. Some binding calls cover weakened binding; strength is not graded here.

Amino acid sequences for entries named in this document (tags omitted).
UniProt Q9UPU5: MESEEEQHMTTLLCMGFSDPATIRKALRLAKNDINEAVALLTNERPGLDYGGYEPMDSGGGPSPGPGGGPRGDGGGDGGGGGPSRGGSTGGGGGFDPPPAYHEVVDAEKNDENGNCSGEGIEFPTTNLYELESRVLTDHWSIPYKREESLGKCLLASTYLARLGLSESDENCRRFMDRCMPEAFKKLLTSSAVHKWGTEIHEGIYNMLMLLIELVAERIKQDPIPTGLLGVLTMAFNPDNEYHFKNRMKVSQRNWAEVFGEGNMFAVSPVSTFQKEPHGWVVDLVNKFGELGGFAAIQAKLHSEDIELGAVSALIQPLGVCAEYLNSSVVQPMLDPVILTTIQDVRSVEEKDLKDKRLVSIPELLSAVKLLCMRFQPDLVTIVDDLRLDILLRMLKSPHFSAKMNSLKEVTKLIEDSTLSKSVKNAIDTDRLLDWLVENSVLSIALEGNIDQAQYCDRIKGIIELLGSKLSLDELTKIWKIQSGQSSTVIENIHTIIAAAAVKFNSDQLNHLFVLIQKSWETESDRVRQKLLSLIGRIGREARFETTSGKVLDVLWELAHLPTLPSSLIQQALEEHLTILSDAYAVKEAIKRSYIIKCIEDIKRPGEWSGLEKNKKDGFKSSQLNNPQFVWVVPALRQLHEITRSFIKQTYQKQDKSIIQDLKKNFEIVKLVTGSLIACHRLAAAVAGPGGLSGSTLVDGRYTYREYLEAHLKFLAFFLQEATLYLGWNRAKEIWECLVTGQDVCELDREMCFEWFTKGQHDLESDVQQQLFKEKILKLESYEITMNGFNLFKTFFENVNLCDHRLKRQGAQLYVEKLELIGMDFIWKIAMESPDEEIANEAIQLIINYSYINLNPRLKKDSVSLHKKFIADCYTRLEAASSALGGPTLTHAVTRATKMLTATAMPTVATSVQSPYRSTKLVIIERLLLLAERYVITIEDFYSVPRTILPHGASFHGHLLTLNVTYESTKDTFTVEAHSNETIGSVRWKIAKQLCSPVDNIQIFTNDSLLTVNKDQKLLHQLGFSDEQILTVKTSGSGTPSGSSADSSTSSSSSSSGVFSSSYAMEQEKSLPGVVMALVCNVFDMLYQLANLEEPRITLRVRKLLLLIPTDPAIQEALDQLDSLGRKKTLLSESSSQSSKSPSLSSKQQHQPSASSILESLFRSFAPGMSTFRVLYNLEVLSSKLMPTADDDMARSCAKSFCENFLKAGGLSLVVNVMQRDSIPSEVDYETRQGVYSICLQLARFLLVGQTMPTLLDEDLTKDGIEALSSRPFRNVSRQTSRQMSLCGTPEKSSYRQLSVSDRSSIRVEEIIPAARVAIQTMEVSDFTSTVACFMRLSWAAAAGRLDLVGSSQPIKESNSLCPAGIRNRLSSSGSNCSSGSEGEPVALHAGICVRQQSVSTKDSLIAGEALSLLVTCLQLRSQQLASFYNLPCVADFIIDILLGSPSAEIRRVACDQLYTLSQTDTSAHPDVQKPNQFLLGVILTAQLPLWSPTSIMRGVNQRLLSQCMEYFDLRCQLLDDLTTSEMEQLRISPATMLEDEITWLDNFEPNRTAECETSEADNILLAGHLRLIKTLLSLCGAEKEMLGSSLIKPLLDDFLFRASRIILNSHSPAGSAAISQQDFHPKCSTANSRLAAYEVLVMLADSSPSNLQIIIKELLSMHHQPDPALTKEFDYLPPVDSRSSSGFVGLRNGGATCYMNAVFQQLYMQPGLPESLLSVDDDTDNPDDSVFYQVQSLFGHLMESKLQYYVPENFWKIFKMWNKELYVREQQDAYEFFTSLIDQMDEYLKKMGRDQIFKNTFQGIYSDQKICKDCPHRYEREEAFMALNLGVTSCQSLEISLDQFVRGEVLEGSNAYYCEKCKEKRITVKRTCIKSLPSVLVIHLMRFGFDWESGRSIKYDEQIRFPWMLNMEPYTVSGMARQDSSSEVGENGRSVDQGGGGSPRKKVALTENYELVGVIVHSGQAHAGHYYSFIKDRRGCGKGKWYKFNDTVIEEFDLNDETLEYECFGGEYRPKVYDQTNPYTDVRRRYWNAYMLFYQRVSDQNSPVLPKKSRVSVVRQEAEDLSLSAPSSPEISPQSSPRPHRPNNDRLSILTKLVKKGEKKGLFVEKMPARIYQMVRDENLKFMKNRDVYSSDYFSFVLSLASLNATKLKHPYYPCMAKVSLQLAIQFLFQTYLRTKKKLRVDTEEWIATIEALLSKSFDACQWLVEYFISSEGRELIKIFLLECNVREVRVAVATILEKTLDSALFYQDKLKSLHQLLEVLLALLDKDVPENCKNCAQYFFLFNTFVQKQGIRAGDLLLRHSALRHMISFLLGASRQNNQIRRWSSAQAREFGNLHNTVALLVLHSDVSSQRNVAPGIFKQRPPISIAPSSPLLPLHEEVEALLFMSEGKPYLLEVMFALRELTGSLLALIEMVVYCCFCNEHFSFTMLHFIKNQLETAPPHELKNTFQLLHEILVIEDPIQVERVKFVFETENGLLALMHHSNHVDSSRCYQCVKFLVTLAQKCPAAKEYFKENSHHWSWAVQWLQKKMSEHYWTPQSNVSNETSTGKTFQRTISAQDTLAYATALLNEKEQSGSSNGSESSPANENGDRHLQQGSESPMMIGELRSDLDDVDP
UniProt Q02127: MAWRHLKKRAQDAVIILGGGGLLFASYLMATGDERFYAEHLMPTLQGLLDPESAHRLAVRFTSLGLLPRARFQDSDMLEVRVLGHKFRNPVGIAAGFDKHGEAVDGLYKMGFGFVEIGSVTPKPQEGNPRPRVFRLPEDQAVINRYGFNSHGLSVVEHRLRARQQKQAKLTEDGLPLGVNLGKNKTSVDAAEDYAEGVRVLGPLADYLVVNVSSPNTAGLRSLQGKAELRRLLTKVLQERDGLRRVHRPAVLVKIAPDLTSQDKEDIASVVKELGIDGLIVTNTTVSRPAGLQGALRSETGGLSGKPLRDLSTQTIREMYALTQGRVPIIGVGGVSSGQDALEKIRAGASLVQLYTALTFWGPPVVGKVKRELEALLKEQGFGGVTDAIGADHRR

Key:
[1] = target: ubiquitin-specific peptidase 24 (USP24) (human (endogenous in MDA-MB-231 and MDA-MB-468)) (UniProt Q9UPU5); assay: co-IP; endogenous proteins in lysates of MDA-MB-231 and MDA-MB-468 cells; lysates pre-cleared with Dynabeads, incubated with unrelated IgG or specific antibodies (USP24 or DHODH, 5 μg/ml) and Dynabeads overnight at 4 °C, washed with PBS, Western blot
[2] = target: dihydroorotate dehydrogenase (DHODH) (human (endogenous in MDA-MB-231 and MDA-MB-468)) (UniProt Q02127); assay: as above

Row | Substance | binding [1] | binding [2]
1 | dihydroorotate dehydrogenase (DHODH) (from UniProt Q02127 1-395) (enzyme) | binds | –
2 | ubiquitin-specific peptidase 24 (USP24) (from UniProt Q9UPU5 1-2620) (enzyme) | – | binds
